Source: PubChem BioAssay AID485314 (National Center for Advancing Translational Sciences (NCATS), 2010)
Hit rate of the full screen: of about 340,000 compounds, about 4,500 (1.3%) were called active. The shares of active, inactive and inconclusive entries below differ from those in the screen. Calls come from the whole dose curve; as a rule, active = well fitted inhibition curve with a large enough effect; inconclusive = small, poorly fitted or top-dose-only effect, or another doubt; inactive = no such curve, though single readings can be large or run the other way. Potencies beside an inconclusive call are fits to weak or partial responses and may not hold up.

These molecules were tested against DNA polymerase beta (Homo sapiens) (UniProt P06746) (assay: qHTS Assay for Inhibitors of DNA Polymerase Beta). Conditions: Pol beta primer extension/strand displacement, fluorescence kinetic; activity change, negative = inhibition: at 114 µM (top of the series).
Method in brief: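 Values derive from four-parameter Hill fits of normalized kinetic data: reads at 0 and 10 min following addition of 50 nM substrate to 10 nM Pol beta preincubated 15 min with compound.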
% is set by controls: 0 for no effect and ±100 for the full control effect; potency is the fitted concentration of half-maximal effect.

Potency, inactive:
Cc1ccccc1C(=O)Nc1nnc(SCC(=O)NCc2ccco2)s1
Cc1nn(C)c2c1c(-c1ccccc1)cc(=O)n2Cc1ccc(Cl)cc1
NS(=O)(=O)c1ccc(CCNC(=O)c2ccc(NC3=NC4CS(=O)(=O)CC4S3)cc2)cc1 (stereo not given)
CCN(C(=O)c1cn(-c2ccc(OC)cc2)c(=O)c2ccccc12)c1cccc(Cl)c1
COC(=O)c1cccc(Nc2nn3c(=O)c4cc5c(cc4nc3s2)OCO5)c1
COc1ccc(CNC(=O)CSc2ncc(S(=O)(=O)c3ccc(Br)cc3)c(=O)[nH]2)cc1
COCCn1cnc2c1c(=O)n(Cc1ccc(C#N)cc1)c(=O)n2Cc1ccccc1
COc1ccc(CNC(=O)c2cc3cccc4c3n2CC(C)S4)c(OC)c1 (stereo not given)
Cc1cccc(NC(=O)CSc2nc(=O)n(Cc3ccccn3)c3c2CCC3)c1C
CCCCc1cc(=O)oc2cc(C)cc(OC(C)C(=O)NC(Cc3c[nH]c4ccc(O)cc34)C(=O)O)c12 (stereo not given)
COc1cc(C(=O)N2CC(=O)Nc3ccc(C)cc3C2c2ccc(F)cc2)cc(OC)c1OC (stereo not given)
O=c1c(S(=O)(=O)c2ccc(Cl)cc2)cn(Cc2ccccc2F)c2ccc(F)cc12
CCn1c(-c2sc(-c3ccccc3)nc2C)n[nH]c1=S
O=c1[nH]c(/C=C/c2cccc([N+](=O)[O-])c2)c([N+](=O)[O-])c(=O)[nH]1
O=C(c1ccccc1)c1ccc2nc(Nc3cc(Cl)ccc3O)c3nncn3c2c1
CC(C)c1ccc(NC(=O)C2(C)Cc3ccccc3C(=O)O2)cc1 (stereo not given)
CCN(CC)c1cc(C)c2cc(NC(=O)/C=C/c3ccc(C)cc3)ccc2n1
Cc1cc(C(F)(F)F)nn1Cc1n[nH]c(=S)n1Cc1ccccc1
CC1(C)C(=O)Nc2ccccc2N1C(=O)COC(=O)CCSc1ccccc1
O=C(N/N=C/c1cc([N+](=O)[O-])ccc1Cl)c1ccc2nc[nH]c2c1
Cc1cc(C)c2nc(-c3ccccn3)cc(C(=O)Nc3cc(C)on3)c2c1
CC(C)C(=O)OC1=CN(Cc2ccccc2)S(=O)(=O)c2ccccc21
Cc1ccc(-c2nn(CC(=O)NC3CCCCC3)c3c2cnc2ccc(F)cc23)cc1C
COCCN1C(=O)CC(NNC(=O)c2ccc(S(=O)(=O)N3CCCC3)cc2)C1=O (stereo not given)
Cc1cc(C(F)(F)F)n(-c2nc(C(=O)N/N=C/c3ccc(F)cc3)cs2)n1

Some of these compounds in order of heavy-atom count, ascending.
Potency, inactive:
O=c1[nH]c(/C=C/c2cccc([N+](=O)[O-])c2)c([N+](=O)[O-])c(=O)[nH]1
Cc1cc(C(F)(F)F)nn1Cc1n[nH]c(=S)n1Cc1ccccc1
Cc1ccccc1C(=O)Nc1nnc(SCC(=O)NCc2ccco2)s1
COC(=O)c1cccc(Nc2nn3c(=O)c4cc5c(cc4nc3s2)OCO5)c1
COCCN1C(=O)CC(NNC(=O)c2ccc(S(=O)(=O)N3CCCC3)cc2)C1=O (stereo not given)
O=c1c(S(=O)(=O)c2ccc(Cl)cc2)cn(Cc2ccccc2F)c2ccc(F)cc12
COCCn1cnc2c1c(=O)n(Cc1ccc(C#N)cc1)c(=O)n2Cc1ccccc1

Next part.

Potency, inconclusive:
Cc1nc2ccc(Cl)cn2c1C(=O)NN 12.6 µM [inhibitor, partial curve, poor fit]
Nc1cc(=O)[nH]c(SCC(=O)Nc2cc(S(=O)(=O)N3CCOCC3)ccc2Cl)n1 89.1 µM [inhibitor, single point]
Cc1cccc(C(=O)Nc2ccc3oc(-c4ccncc4)nc3c2)c1 0.891 µM [inhibitor, partial curve, poor fit]
CNC(=S)N(Cc1cc2ccc(OC)cc2[nH]c1=O)CC1CCCO1 (stereo not given) 3.98 µM [inhibitor, single point]
c1ccc2nc3c(nc2c1)c1ccccc1n3CCN1CCOCC1 7.94 µM [inhibitor, full curve, poor fit]
Cc1ccc(N=C2NC(=O)/C(=C\c3ccsc3)S2)c(C)c1 14.1 µM [inhibitor, full curve, poor fit]
CCCCOc1ccc(CNC(=O)Cc2ccc(NC(=O)N3CCSc4ncccc43)cc2)cc1 89.1 µM [inhibitor, single point]
C/C(=N/NC(=O)c1ccccn1)c1c[nH]c2ccccc12 5.62 µM [inhibitor, full curve, poor fit]
CCCCC1(C)OC(=O)C(=Cc2ccc(SC)cc2)C(=O)O1 (stereo not given) 44.7 µM [inhibitor, partial curve]
CCN1CCN(c2cc3nc(C)n(Cc4ccccc4)c(=O)c3cc2NC(=O)c2ccccc2F)CC1 20 µM [inhibitor, single point]
CCOC(=O)c1c(C)[nH]c(C)c1S(=O)(=O)N(C)CC(=O)Nc1cc(C)ccc1OC 44.7 µM [inhibitor, single point]
CCOC(=O)c1cccc(NC(=O)CSc2nnc(-c3ccoc3C)n2CCOC)c1 0.1 µM [inhibitor, full curve, poor fit]
COc1ccc(C(=S)N2CCOCC2)cc1OC(=O)c1cc([N+](=O)[O-])c(C)c([N+](=O)[O-])c1 35.5 µM [inhibitor, full curve]
COc1ccc(C(=O)Oc2cc(-c3ccc4c(c3)OCO4)cc(=O)c3c(C)oc(C)c23)cc1 50.1 µM [inhibitor, partial curve]
N#Cc1ccsc1NC(=O)CSc1nnnn1-c1ccc(O)cc1 11.2 µM [inhibitor, partial curve]
COc1ccc(N(CC(=O)N/N=C/c2cccc(OC)c2OC)S(=O)(=O)c2ccccc2)cc1 44.7 µM [inhibitor, partial curve, poor fit]
O=C(Nc1ccc(F)cc1)Nc1ccccc1F 79.4 µM [inhibitor, single point]
O=C(O)CC/C(=C\c1cc2c(cc1Br)OCO2)c1nc2ccccc2s1 89.1 µM [inhibitor, single point]
O=C1c2ccccc2-c2n[nH]c(=O)c3ccc(N4CCCCC4)c1c23 31.6 µM [inhibitor, single point]
CCN(CC)c1ccc(N2C(=O)CSC2=S)cc1 70.8 µM [inhibitor, single point]
Cc1ccc(C)c(NC(=O)NCc2ccc3c(c2)CCN3C(=O)c2ccccc2)c1 89.1 µM [inhibitor, single point]
CCOc1ccc(CN2CCN(Cc3cccc4nonc34)CC2CCO)cc1 (stereo not given) 14.1 µM [inhibitor, partial curve]
Cc1ccc(C(=O)NNC(=O)CSc2nnc(C3CC3)n2C)cc1 89.1 µM [inhibitor, single point]
CC(C)(C)C(=O)Nc1ccc(S(=O)(=O)Nc2ccccn2)cc1 100 µM [inhibitor, single point]
CC1CCCCC1NC(=O)COC(=O)c1ccc(S(=O)(=O)NCc2ccco2)cc1 (stereo not given) 25.1 µM [inhibitor, full curve]
Cc1cc[n+](-c2[nH]c(=O)sc2/C=N/N=C(\[O-])c2ccncc2)cc1 89.1 µM [inhibitor, single point]
Cc1[nH]n(C(N)=S)c(=O)c1N=Nc1ccc(S(=O)(=O)N2CCCC2)cc1 89.1 µM [inhibitor, single point]
CN(C(=O)COC(=O)c1ccccc1Cc1ccccc1)C1CCS(=O)(=O)C1 (stereo not given) 0.501 µM [inhibitor, full curve, poor fit]
CCC1=C2CC[C@H]3C(=O)N(CC)C(=O)[C@H]3[C@H]2[C@@]2(Cc3ccccc3)C(=NCc3ccccc3)OC(=O)N2C1=O 0.178 µM [inhibitor, full curve, poor fit]
NC1=NC(=O)/C(=C\c2cccs2)S1 89.1 µM [inhibitor, single point]
CCCCCCCCCCCCCCC[C@H](O)[C@H](N)CO 39.8 µM [inhibitor, partial curve]
COc1ccc(CNC(=O)C(CCSC)NC(=O)c2ccco2)cc1 (stereo not given) 89.1 µM [inhibitor, single point]
Cc1[nH]c2ccccc2c1/C=N/Nc1nncn1N 89.1 µM [inhibitor, single point]
Cc1ccc(-n2nc(C(=O)NCCN(C)C)c(=O)n(C)c2=O)cc1 89.1 µM [inhibitor, single point]
CCCCCCC(=O)NC(Nc1ccc(S(N)(=O)=O)cc1)C(Cl)(Cl)Cl (stereo not given) 28.2 µM [inhibitor, partial curve]
CSc1nnc2c3cc(C)ccc3n(Cc3ccccc3)c2n1 3.55 µM [inhibitor, full curve]
O=C(CSc1nc2c(cnn2-c2ccc(F)cc2)c(=O)[nH]1)Nc1ccc(Br)cc1 3.16 µM [inhibitor, full curve]

Potency, active:
CS(=O)(=O)c1ccc2c(c1)SC1=NC(=O)/C(=C/c3ccco3)C(=N)N12 31.6 µM
O=[N+]([O-])c1cc(/C=N\Nc2nc(-c3ccccc3)cs2)ccc1O 39.8 µM
COc1ccc(N2C(=O)/C(=C\c3ccco3)N=C2SCC(=O)N(C(C)C)C(C)C)cc1Cl 56.2 µM
COC(=O)C1CCN(CC(=O)Nc2sc3c(c2C#N)CCC3)CC1 39.8 µM
CC(C)C(CCNC(=O)CC(Cc1ccccc1)c1ccco1)c1ccco1 (stereo not given) 31.6 µM

Activity change, negative = inhibition, inconclusive:
Cc1cc(C)n2c(SCC(=O)NCc3ccc4c(c3)OCO4)nnc2n1 -58.4% [inhibitor]
O=C(Nc1cccc(-c2cccc(F)c2)c1)C1CCN(C2CCOCC2)CC1 -75.7% [inhibitor]
CC(=O)Nc1cccc(NC(=O)c2csc(C)c2)c1 -43.5% [inhibitor]
